Measured values: US6727278B1, “Pharmaceutically active agents that impede amyloid formation in vivo” (DMS Pharmaceutical Inc., priority 1986, dated 2004)

Legend:
[1] = system: human DMS; assay: In vivo assay: amyloid formation induced by intracerebral injection of human DMS with the compound, Congo Red histology; set-up: species or system Male Wistar rats; conditions: for Mean Lesion Area Composed of CBADs: percentage of lesion area, ** = significant decrease from untreated controls
[2] = cited from earlier work
[3] = system: plasma proteins; conditions: cited from earlier work

COC(=O)C1=C(C)NC(C)=C(C(=O)OC)C1c1ccccc1[N+](=O)[O-] [Procardia, Nifedipine]
Mean Number of CBADs Per Animal ([1]; 10^−2M): 4 | Mean Lesion Area Composed of CBADs ([1]; 10^−2M): 0.2** | Mean Number of CBADs Per Animal ([1]; 10^−5 − 10^−6M, CBADs = Congophilic Birefringent Amyloid Deposits): 88 | Mean Lesion Area Composed of CBADs ([1]; 10^−5 − 10^−6M): 7.6 | absorption by sublingual administration [2]: rapidly and completely absorbed | bound to plasma proteins [3]: 98%
